Taken from: PubChem BioAssay AID504786 (Drosophila RNAi Screening Center, 2011)
The deposit covers about 21,000 reagents; shown is a random part of those with a known target gene and a result. 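Primary screen; positive scores mean lost reporter signal, so the sign may be inverted from the usual convention.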 Names joined by + are all predicted targets of the reagent. No sequences are given here.

- Aim: 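Positive regulators of HIF-driven reporter output in Drosophila cells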 (primary screen)
- Cells: Drosophila S2 cells with a stable HIF luciferase reporter
- Knock-down reagent: long dsRNA against Drosophila genes, about 0.2 µg dsRNA per well of a 384-well plate
- Duration: three days of knock-down, then 20 h of DFO before reading
- Conditions: desferrioxamine (DFO) at 100 µM, an iron chelator that mimics hypoxia, for 20 h
- Measurement: 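HIF reporter luminescence in cells given 100 µM DFO for 20 h, using the mouse ldh-a hypoxia-response element, scored as per-plate z-scores; higher means greater loss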
- Scale: z-score: higher = stronger loss of HIF reporter signal

{"Target gene": "Cpr92F (Cuticular protein 92F)", "amplicon": "DRSC15819", "z-score, replicate 1": -0.6, "z-score, replicate 2": -0.1}
{"Target gene": "CG31809", "amplicon": "DRSC01561", "z-score, replicate 1": -0.4, "z-score, replicate 2": -0.4}
{"Target gene": "CG18641", "amplicon": "DRSC00527", "z-score, replicate 1": -0.3, "z-score, replicate 2": -0.5}
{"Target gene": "CG8060", "amplicon": "DRSC07064", "z-score, replicate 1": -0.2, "z-score, replicate 2": -0.6}
{"Target gene": "CG18284", "amplicon": "DRSC02661", "z-score, replicate 1": -0.2, "z-score, replicate 2": -0.2}
{"Target gene": "CG18284", "amplicon": "DRSC20756", "z-score, replicate 1": 0.1, "z-score, replicate 2": -0.3}
{"Target gene": "CG40551 (retired record)", "amplicon": "DRSC21229", "z-score, replicate 1": -0.7, "z-score, replicate 2": -0.2}
{"Target gene": "Rpt1 (Regulatory particle triple-A ATPase 1)", "amplicon": "DRSC07542", "z-score, replicate 1": 6.4, "z-score, replicate 2": 5.1}
{"Target gene": "Cyp40 (Cyclophilin 40)", "amplicon": "DRSC10980", "z-score, replicate 1": -0.3, "z-score, replicate 2": -0.2}
{"Target gene": "CG10914", "amplicon": "DRSC06010", "z-score, replicate 1": -0.4, "z-score, replicate 2": -0.3}

In a second layout: 2 of the entries above.
Target gene	amplicon	z-score, replicate 1	z-score, replicate 2
Rpt1 (Regulatory particle triple-A ATPase 1)	DRSC07542	6.4	5.1
Cyp40 (Cyclophilin 40)	DRSC10980	-0.3	-0.2

More entries follow:
{"Target gene": "pb (proboscipedia)", "amplicon": "DRSC12409", "z-score, replicate 1": -0.2, "z-score, replicate 2": -0.3}
{"Target gene": "pb (proboscipedia)", "amplicon": "DRSC12629", "z-score, replicate 1": 2.4, "z-score, replicate 2": 0.2}
{"Target gene": "CG14036", "amplicon": "DRSC02361", "z-score, replicate 1": -0.3, "z-score, replicate 2": -0.4}
{"Target gene": "CG32187", "amplicon": "DRSC10521", "z-score, replicate 1": -0.2, "z-score, replicate 2": 0.1}
{"Target gene": "CG1161", "amplicon": "DRSC12180", "z-score, replicate 1": 5.2, "z-score, replicate 2": 5.5}
{"Target gene": "CG17768 + LSm-4", "amplicon": "DRSC02845", "z-score, replicate 1": 1.3, "z-score, replicate 2": 1.5}
